Results are given in words; binding and its absence hold for the method and conditions named. In cells and extracts the contact can be indirect. Some entries that bind do so weakly or less than the wild type. Sequences can lack the tags named with a protein.
Target: FAM19A5 protein isoform 1 (human) (UniProt Q7Z5A7)
Test: co-IP and immunofluorescence, co-transfected HEK293 cells

The chains behind the UniProt entries cited, without tags or fusion partners. Where a name states a change or a piece, a line headed by the entry shows the natural chain unless it says otherwise.
UniProt Q7Z5A7: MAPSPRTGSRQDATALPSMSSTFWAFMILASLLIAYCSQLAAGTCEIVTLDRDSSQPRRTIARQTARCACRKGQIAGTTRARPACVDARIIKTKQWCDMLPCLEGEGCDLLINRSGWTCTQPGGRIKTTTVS

binding: binds
B1: FLAG-tagged LRRC4B protein (receptor)
chain: AGGGGVAVTSAAGGGSPPATSCPVACSCSNQASRVICTRRDLAEVPASIPVNTRYLNLQENGIQVIRTDTFKHLRHLEILQLSKNLVRKIEVGAFNGLPSLNTLELFDNRLTTVPTQAFEYLSKLRELWLRNNPIESIPSYAFNRVPSLRRLDLGELKRLEYISEAAFEGLVNLRYLNLGMCNLKDIPNLTALVRLEELELSGNRLDLIRPGSFQGLTSLRKLWLMHAQVATIERNAFDDLKSLEELNLSHNNLMSLPHDLFTPLHRLERVHLNHNPWHCNCDVLWLSWWLKETVPSNTTCCARCHAPAGLKGRYIGELDQSHFTCYAPVIVEPPTDLNVTEGMAAELKCRTGTSMTSVNWLTPNGTLMTHGSYRVRISVLHDGTLNFTNVTVQDTGQYTCMVTNSAGNTTASATLNVSAVDPVAAGGTGSGGGGPGGSGGVGGGSGGYTYFTTVTVETLETQPGEEALQPRGTEKEPPGPTTDGVWGGGRPGDAAGPASSSTTAPAPRSSRPTEKAFTVPITDVTENALKDLDDVMKTTKIIIGCFVAITFMAAVMLVAFYKLRKQHQLHKHHGPTRTVEIINVEDELPAASAVSVAAAAAVASGGGVGGDSHLALPALERDHLNHHHYVAAAFKAHYSSNPSGGGCGGKGPPGLNSIHEPLLFKSGSKENVQETQI

Reference: patent US20240238445A1, “INHIBITORS AND USES THEREOF” (NEURACLE SCIENCE CO., LTD., priority 2021, published 2024)
